# Results taken from paper PMC9321973.
# By UniProt entry, the sequences of proteins in these tests, tags left out.
# UniProt Q9NZT1: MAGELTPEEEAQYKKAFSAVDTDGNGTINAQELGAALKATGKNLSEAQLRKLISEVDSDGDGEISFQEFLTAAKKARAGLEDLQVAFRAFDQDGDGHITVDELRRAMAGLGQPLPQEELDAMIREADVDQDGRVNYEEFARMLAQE
# UniProt P15924: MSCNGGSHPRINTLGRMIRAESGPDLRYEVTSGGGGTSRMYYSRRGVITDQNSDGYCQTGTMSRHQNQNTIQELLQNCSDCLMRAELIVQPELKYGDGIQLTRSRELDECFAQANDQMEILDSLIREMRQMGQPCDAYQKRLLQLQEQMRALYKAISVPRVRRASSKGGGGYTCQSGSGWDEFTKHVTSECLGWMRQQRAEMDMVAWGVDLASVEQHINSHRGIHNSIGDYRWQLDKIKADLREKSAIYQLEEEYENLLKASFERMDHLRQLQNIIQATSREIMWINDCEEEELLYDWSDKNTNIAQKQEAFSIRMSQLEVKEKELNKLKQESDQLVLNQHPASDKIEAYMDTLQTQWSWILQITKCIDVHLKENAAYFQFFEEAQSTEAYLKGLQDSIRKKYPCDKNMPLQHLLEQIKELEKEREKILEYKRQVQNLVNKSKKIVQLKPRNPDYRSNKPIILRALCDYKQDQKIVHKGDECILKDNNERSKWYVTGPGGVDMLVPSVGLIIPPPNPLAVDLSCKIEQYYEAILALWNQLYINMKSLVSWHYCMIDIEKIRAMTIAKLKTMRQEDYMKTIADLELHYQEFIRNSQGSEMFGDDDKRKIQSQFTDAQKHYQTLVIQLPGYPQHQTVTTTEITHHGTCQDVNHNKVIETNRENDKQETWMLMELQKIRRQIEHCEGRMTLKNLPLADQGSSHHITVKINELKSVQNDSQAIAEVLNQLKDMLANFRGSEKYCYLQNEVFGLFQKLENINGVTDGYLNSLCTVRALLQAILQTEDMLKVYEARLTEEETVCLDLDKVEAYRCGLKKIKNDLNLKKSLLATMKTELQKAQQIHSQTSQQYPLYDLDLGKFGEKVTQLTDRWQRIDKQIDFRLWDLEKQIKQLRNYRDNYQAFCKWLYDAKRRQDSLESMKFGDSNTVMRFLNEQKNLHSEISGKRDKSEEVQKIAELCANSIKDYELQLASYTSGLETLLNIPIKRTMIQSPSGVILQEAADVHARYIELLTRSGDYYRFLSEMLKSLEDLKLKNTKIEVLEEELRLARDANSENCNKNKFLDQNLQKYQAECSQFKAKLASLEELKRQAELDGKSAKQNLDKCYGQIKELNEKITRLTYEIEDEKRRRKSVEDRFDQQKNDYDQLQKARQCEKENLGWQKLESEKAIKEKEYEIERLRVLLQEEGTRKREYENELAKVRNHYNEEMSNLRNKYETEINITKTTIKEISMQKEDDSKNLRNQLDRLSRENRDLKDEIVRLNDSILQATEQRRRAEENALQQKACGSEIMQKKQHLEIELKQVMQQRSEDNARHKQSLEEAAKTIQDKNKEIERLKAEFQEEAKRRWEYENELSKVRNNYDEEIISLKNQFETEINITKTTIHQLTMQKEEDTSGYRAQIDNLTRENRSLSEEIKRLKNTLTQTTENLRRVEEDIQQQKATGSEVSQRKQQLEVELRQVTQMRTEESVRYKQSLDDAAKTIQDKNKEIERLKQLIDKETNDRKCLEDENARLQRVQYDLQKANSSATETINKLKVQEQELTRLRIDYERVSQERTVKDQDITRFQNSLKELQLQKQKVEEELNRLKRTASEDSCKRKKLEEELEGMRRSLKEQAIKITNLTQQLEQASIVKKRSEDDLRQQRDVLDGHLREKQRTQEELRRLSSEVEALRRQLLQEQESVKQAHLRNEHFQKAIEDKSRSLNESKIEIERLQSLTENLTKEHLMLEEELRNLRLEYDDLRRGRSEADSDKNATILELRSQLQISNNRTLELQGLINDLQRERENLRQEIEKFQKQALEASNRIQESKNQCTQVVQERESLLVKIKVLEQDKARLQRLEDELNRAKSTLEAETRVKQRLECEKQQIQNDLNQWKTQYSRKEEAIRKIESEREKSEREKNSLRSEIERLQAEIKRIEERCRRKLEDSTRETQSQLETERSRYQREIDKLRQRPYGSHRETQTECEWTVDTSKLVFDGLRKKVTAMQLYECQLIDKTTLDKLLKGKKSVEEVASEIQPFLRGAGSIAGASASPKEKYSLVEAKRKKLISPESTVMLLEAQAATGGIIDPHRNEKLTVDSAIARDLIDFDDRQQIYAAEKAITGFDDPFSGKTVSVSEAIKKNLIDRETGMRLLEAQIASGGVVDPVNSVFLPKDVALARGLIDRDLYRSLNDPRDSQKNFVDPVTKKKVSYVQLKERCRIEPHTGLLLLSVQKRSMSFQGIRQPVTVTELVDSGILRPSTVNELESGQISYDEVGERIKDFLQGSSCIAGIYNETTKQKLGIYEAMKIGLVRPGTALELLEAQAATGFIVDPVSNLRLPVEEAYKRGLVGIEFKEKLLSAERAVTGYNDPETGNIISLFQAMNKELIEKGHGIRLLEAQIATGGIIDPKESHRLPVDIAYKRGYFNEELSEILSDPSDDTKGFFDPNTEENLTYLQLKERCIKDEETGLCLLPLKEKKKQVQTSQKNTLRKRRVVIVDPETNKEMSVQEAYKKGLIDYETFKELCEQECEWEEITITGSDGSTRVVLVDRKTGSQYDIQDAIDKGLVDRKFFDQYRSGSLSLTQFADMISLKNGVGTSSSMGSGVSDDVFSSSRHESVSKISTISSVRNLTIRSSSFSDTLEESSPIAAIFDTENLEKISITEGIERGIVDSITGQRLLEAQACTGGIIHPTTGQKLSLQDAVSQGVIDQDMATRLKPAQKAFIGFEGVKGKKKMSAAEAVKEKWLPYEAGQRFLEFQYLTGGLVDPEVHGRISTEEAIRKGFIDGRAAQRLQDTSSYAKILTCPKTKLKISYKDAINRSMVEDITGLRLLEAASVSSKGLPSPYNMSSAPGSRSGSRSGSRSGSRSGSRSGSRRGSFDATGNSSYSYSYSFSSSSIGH
# UniProt P04792: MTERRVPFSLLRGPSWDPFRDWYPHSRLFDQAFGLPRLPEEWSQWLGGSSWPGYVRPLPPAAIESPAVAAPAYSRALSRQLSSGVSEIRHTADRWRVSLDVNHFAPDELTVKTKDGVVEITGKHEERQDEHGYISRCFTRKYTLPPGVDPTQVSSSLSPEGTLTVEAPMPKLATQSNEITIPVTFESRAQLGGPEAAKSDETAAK
# UniProt O60437: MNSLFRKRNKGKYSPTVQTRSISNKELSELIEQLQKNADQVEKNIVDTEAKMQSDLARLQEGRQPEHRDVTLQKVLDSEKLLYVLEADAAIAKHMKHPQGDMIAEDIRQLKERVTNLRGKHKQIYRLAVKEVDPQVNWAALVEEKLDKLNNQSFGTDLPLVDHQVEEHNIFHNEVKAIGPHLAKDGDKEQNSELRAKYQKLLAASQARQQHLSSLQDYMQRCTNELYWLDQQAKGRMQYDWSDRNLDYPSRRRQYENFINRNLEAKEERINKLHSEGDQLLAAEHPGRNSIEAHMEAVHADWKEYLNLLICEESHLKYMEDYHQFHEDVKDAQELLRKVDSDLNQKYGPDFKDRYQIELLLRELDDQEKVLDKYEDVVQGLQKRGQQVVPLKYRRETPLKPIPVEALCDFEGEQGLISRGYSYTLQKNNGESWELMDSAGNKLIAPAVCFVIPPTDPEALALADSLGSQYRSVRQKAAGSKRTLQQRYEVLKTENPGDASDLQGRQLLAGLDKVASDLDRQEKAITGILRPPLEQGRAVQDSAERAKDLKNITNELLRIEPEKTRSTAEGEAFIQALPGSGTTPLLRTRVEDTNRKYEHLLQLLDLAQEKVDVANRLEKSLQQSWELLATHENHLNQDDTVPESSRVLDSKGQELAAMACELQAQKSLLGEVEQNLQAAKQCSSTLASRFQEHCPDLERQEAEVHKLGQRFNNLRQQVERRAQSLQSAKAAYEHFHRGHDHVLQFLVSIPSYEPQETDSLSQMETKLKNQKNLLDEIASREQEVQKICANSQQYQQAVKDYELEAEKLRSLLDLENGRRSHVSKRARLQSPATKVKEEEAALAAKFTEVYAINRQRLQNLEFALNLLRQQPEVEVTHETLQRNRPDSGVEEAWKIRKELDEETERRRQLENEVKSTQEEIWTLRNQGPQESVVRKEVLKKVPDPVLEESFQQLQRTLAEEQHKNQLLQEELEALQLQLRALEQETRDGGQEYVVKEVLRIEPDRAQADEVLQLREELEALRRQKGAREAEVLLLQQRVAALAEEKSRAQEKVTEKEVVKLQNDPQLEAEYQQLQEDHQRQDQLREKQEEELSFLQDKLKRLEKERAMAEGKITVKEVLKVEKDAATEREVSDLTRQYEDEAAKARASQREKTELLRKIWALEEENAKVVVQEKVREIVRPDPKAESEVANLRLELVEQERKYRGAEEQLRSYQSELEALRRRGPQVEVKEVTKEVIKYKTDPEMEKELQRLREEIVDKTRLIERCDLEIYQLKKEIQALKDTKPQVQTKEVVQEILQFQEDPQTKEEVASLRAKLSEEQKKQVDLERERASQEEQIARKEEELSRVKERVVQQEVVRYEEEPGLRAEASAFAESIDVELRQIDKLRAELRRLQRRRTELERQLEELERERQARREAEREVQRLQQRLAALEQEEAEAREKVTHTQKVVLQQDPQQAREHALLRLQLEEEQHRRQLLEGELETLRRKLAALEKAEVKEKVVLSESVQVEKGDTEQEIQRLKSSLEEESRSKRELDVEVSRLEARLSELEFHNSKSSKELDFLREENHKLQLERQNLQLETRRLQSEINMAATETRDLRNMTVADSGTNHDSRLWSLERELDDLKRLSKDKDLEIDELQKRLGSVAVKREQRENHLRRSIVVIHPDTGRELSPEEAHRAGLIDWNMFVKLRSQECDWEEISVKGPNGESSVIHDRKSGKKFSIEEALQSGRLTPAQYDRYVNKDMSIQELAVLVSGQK
# UniProt Q15208: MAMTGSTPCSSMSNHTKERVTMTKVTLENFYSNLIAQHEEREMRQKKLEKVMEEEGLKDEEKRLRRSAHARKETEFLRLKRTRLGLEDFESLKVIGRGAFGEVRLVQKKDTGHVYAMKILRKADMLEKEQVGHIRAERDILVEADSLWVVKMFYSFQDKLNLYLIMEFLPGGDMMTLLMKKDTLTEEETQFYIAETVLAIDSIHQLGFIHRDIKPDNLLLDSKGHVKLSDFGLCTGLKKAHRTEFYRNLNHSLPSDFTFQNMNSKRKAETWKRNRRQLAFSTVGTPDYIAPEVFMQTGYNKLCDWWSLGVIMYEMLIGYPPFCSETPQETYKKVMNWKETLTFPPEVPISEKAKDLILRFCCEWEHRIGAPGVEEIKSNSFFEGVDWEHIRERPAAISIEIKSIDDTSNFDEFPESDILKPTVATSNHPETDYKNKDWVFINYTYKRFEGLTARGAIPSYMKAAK
# UniProt O43795: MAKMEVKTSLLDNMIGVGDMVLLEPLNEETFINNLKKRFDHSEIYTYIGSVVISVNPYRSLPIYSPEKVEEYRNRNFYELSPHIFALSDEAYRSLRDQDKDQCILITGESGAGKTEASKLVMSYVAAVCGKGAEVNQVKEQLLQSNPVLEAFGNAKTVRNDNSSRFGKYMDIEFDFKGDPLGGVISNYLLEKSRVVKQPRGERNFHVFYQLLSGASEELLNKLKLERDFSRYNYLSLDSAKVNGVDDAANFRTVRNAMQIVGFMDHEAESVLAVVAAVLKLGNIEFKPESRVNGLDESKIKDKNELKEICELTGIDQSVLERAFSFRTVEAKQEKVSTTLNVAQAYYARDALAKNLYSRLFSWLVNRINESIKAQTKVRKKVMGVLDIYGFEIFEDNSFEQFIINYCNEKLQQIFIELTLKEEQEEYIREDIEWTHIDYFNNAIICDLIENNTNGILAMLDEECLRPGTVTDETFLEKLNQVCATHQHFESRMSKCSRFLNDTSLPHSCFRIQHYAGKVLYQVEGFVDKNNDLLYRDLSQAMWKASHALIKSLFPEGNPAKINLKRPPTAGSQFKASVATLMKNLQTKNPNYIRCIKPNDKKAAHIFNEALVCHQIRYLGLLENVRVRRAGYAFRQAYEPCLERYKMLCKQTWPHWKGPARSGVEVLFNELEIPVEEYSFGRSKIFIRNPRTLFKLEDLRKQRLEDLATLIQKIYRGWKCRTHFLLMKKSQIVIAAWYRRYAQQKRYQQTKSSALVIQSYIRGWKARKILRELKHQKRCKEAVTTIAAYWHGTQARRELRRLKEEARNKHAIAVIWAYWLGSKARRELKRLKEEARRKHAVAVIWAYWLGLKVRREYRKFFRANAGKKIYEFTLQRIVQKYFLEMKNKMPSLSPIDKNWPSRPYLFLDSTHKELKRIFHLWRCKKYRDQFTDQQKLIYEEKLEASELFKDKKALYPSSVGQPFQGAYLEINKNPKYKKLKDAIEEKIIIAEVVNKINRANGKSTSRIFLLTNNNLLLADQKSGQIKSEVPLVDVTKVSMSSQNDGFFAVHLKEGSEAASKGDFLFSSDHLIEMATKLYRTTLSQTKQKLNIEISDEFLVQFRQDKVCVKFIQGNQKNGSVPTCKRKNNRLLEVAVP
# These are yes or no findings as the source states them, for the method shown. Binding seen in cells or lysates may run through a third protein. Here binding means that the protein was enriched with, or labelled near, the bait; the list need not be complete. Sequences can lack the tags named with a protein.
# B1: Involucrin (protein, UniProt P07476 1-585)
# chain: MSQQHTLPVTLSPALSQELLKTVPPPVNTHQEQMKQPTPLPPPCQKVPVELPVEVPSKQEEKHMTAVKGLPEQECEQQQKEPQEQELQQQHWEQHEEYQKAENPEQQLKQEKTQRDQQLNKQLEEEKKLLDQQLDQELVKRDEQLGMKKEQLLELPEQQEGHLKHLEQQEGQLKHPEQQEGQLELPEQQEGQLELPEQQEGQLELPEQQEGQLELPEQQEGQLELPEQQEGQLELPQQQEGQLELSEQQEGQLELSEQQEGQLKHLEHQEGQLEVPEEQMGQLKYLEQQEGQLKHLDQQEKQPELPEQQMGQLKHLEQQEGQPKHLEQQEGQLEQLEEQEGQLKHLEQQEGQLEHLEHQEGQLGLPEQQVLQLKQLEKQQGQPKHLEEEEGQLKHLVQQEGQLKHLVQQEGQLEQQERQVEHLEQQVGQLKHLEEQEGQLKHLEQQQGQLEVPEQQVGQPKNLEQEEKQLELPEQQEGQVKHLEKQEAQLELPEQQVGQPKHLEQQEKHLEHPEQQDGQLKHLEQQEGQLKDLEQQKGQLEQPVFAPAPGQVQDIQPALPTKGEVLLPVEHQQQKQEVQWPPKHK
# B2: Ethylmalonyl-CoA decarboxylase (protein, UniProt Q9NTX5 1-307)
# chain: MALKQEMAKSLLKTASLSGRTKLLHQTGLSLYSTSHGFYEEEVKKTLQQFPGGSIDLQKEDNGIGILTLNNPSRMNAFSGVMMLQLLEKVIELENWTEGKGLIVRGAKNTFSSGSDLNAVKSLGTPEDGMAVCMFMQNTLTRFMRLPLISVALVQGWALGGGAEFTTACDFRLMTPESKIRFVHKEMGIIPSWGGTTRLVEIIGSRQALKVLSGALKLDSKNALNIGMVEEVLQSSDETKSLEEAQEWLKQFIQGPPEVIRALKKSVCSGRELYLEEALQNERDLLGTVWGGPANLEAIAKKGKFNK
# B3: Dehydrogenase/reductase SDR family member 4 (protein, UniProt Q9BTZ2 1-278)
# chain: MHKAGLLGLCARAWNSVRMASSGMTRRDPLANKVALVTASTDGIGFAIARRLAQDGAHVVVSSRKQQNVDQAVATLQGEGLSVTGTVCHVGKAEDRERLVATAVKLHGGIDILVSNAAVNPFFGSIMDVTEEVWDKTLDINVKAPALMTKAVVPEMEKRGGGSVVIVSSIAAFSPSPGFSPYNVSKTALLGLTKTLAIELAPRNIRVNCLAPGLIKTSFSRMLWMDKEKEESMKETLRIRRLGEPEDCAGIVSFLCSEDASYITGETVVVGGGTPSRL
# B4: DNA ligase 3 (protein, UniProt P49916 43-1009)
# chain: LLHGHPLFLRRKPVLSFQGSHLRSRATYLVFLPGLHVGLCSGPCEMAEQRFCVDYAKRGTAGCKKCKEKIVKGVCRIGKVVPNPFSESGGDMKEWYHIKCMFEKLERARATTKKIEDLTELEGWEELEDNEKEQITQHIADLSSKAAGTPKKKAVVQAKLTTTGQVTSPVKGASFVTSTNPRKFSGFSAKPNNSGEAPSSPTPKRSLSSSKCDPRHKDCLLREFRKLCAMVADNPSYNTKTQIIQDFLRKGSAGDGFHGDVYLTVKLLLPGVIKTVYNLNDKQIVKLFSRIFNCNPDDMARDLEQGDVSETIRVFFEQSKSFPPAAKSLLTIQEVDEFLLRLSKLTKEDEQQQALQDIASRCTANDLKCIIRLIKHDLKMNSGAKHVLDALDPNAYEAFKASRNLQDVVERVLHNAQEVEKEPGQRRALSVQASLMTPVQPMLAEACKSVEYAMKKCPNGMFSEIKYDGERVQVHKNGDHFSYFSRSLKPVLPHKVAHFKDYIPQAFPGGHSMILDSEVLLIDNKTGKPLPFGTLGVHKKAAFQDANVCLFVFDCIYFNDVSLMDRPLCERRKFLHDNMVEIPNRIMFSEMKRVTKALDLADMITRVIQEGLEGLVLKDVKGTYEPGKRHWLKVKKDYLNEGAMADTADLVVLGAFYGQGSKGGMMSIFLMGCYDPGSQKWCTVTKCAGGHDDATLARLQNELDMVKISKDPSKIPSWLKVNKIYYPDFIVPDPKKAAVWEITGAEFSKSEAHTADGISIRFPRCTRIRDDKDWKSATNLPQLKELYQLSKEKADFTVVAGDEGSSTTGGSSEENKGPSGSAVSRKAPSKPSASTKKAEGKLSNSNSKDGNMQTAKPSAMKVGEKLATKSSPVKVGEKRKAADETLCQTKVLLDIFTGVRLYLPPSTPDFSRLRRYFVAFDGDLVQEFDMTSATHVLGSRDKNPAAQQVSPEWIWACIRKRRLVAPC
# B5: Serpin B3 (protein, UniProt P29508 1-390)
# chain: MNSLSEANTKFMFDLFQQFRKSKENNIFYSPISITSALGMVLLGAKDNTAQQIKKVLHFDQVTENTTGKAATYHVDRSGNVHHQFQKLLTEFNKSTDAYELKIANKLFGEKTYLFLQEYLDAIKKFYQTSVESVDFANAPEESRKKINSWVESQTNEKIKNLIPEGNIGSNTTLVLVNAIYFKGQWEKKFNKEDTKEEKFWPNKNTYKSIQMMRQYTSFHFASLEDVQAKVLEIPYKGKDLSMIVLLPNEIDGLQKLEEKLTAEKLMEWTSLQNMRETRVDLHLPRFKVEESYDLKDTLRTMGMVDIFNGDADLSGMTGSRGLVLSGVLHKAFVEVTEEGAEAAAATAVVGFGSSPTSTNEEFHCNHPFLFFIRQNKTNSILFYGRFSSP
# B6: Malate dehydrogenase, mitochondrial (protein, UniProt P40926 25-338)
# chain: AKVAVLGASGGIGQPLSLLLKNSPLVSRLTLYDIAHTPGVAADLSHIETKAAVKGYLGPEQLPDCLKGCDVVVIPAGVPRKPGMTRDDLFNTNATIVATLTAACAQHCPEAMICVIANPVNSTIPITAEVFKKHGVYNPNKIFGVTTLDIVRANTFVAELKGLDPARVNVPVIGGHAGKTIIPLISQCTPKVDFPQDQLTALTGRIQEAGTEVVKAKAGAGSATLSMAYAGARFVFSLVDAMNGKEGVVECSFVKSQETECTYFSTPLLLGKKGIEKNLGIGKVSSFEEKMISDAIPELKASIKKGEDFVKTLK
# B7: Lon protease homolog, mitochondrial (protein, UniProt P36776 68-959)
# chain: FWEASSRGGGAFSGGEDASEGGAEEGAGGAGGSAGAGEGPVITALTPMTIPDVFPHLPLIAITRNPVFPRFIKIIEVKNKKLVELLRRKVRLAQPYVGVFLKRDDSNESDVVESLDEIYHTGTFAQIHEMQDLGDKLRMIVMGHRRVHISRQLEVEPEEPEAENKHKPRRKSKRGKKEAEDELSARHPAELAMEPTPELPAEVLMVEVENVVHEDFQVTEEVKALTAEIVKTIRDIIALNPLYRESVLQMMQAGQRVVDNPIYLSDMGAALTGAESHELQDVLEETNIPKRLYKALSLLKKEFELSKLQQRLGREVEEKIKQTHRKYLLQEQLKIIKKELGLEKDDKDAIEEKFRERLKELVVPKHVMDVVDEELSKLGLLDNHSSEFNVTRNYLDWLTSIPWGKYSNENLDLARAQAVLEEDHYGMEDVKKRILEFIAVSQLRGSTQGKILCFYGPPGVGKTSIARSIARALNREYFRFSVGGMTDVAEIKGHRRTYVGAMPGKIIQCLKKTKTENPLILIDEVDKIGRGYQGDPSSALLELLDPEQNANFLDHYLDVPVDLSKVLFICTANVTDTIPEPLRDRMEMINVSGYVAQEKLAIAERYLVPQARALCGLDESKAKLSSDVLTLLIKQYCRESGVRNLQKQVEKVLRKSAYKIVSGEAESVEVTPENLQDFVGKPVFTVERMYDVTPPGVVMGLAWTAMGGSTLFVETSLRRPQDKDAKGDKDGSLEVTGQLGEVMKESARIAYTFARAFLMQHAPANDYLVTSHIHLHVPEGATPKDGPSAGCTIVTALLSLAMGRPVRQNLAMTGEVSLTGKILPVGGIKEKTIAAKRAGVTCIVLPAENKKDFYDLAAFITEGLEVHFVEHYREIFDIAFPDEQAEALAVER
# B8: T-complex protein 1 subunit beta (protein, UniProt P78371 1-535)
# chain: MASLSLAPVNIFKAGADEERAETARLTSFIGAIAIGDLVKSTLGPKGMDKILLSSGRDASLMVTNDGATILKNIGVDNPAAKVLVDMSRVQDDEVGDGTTSVTVLAAELLREAESLIAKKIHPQTIIAGWREATKAAREALLSSAVDHGSDEVKFRQDLMNIAGTTLSSKLLTHHKDHFTKLAVEAVLRLKGSGNLEAIHIIKKLGGSLADSYLDEGFLLDKKIGVNQPKRIENAKILIANTGMDTDKIKIFGSRVRVDSTAKVAEIEHAEKEKMKEKVERILKHGINCFINRQLIYNYPEQLFGAAGVMAIEHADFAGVERLALVTGGEIASTFDHPELVKLGSCKLIEEVMIGEDKLIHFSGVALGEACTIVLRGATQQILDEAERSLHDALCVLAQTVKDSRTVYGGGCSEMLMAHAVTQLANRTPGKEAVAMESYAKALRMLPTIIADNAGYDSADLVAQLRAAHSEGNTTAGLDMREGTIGDMAILGITESFQVKRQVLLSAAEAAEVILRVDNIIKAAPRKRVPDHHPC
# Target: 3×FLAG-tagged N-terminus-truncated NS1 protein (amino acids 79–230) of influenza A virus PR8(H1N1) (influenza virus A/PR8/34 (H1N1)) (UniProt P03496)
# Experiment: affinity purification with mass spectrometry
row,Molecule,binding
1,14-3-3 protein sigma (from UniProt P31947 1-248),binds
2,Calmodulin-like protein 5 (from UniProt Q9NZT1 1-146),binds
3,Desmoglein-1 (from UniProt Q02413 50-1049),binds
4,Desmoplakin (from UniProt P15924 1-2871),binds
5,Envoplakin (from UniProt Q92817 1-2033),binds
6,Epiplakin (from UniProt P58107 1-5088),binds
7,Filaggrin (from UniProt P20930 1-4061),binds
8,Filaggrin-2 (from UniProt Q5D862 1-2391),binds
9,Heat shock protein beta-1 (from UniProt P04792 1-205),binds
10,Inosine-5′-monophosphate dehydrogenase 2 (from UniProt P12268 1-514),binds
11,Neuroblast differentiation-associated protein AHNAK (from UniProt Q09666 1-5890),binds
12,Periplakin (from UniProt O60437 1-1756),binds
13,Prelamin-A/C (from UniProt P02545 1-646),binds
14,Protein POF1B (from UniProt Q8WVV4 1-589),binds
15,RNA-binding protein PNO1 (from UniProt Q9NRX1 1-252),binds
16,Ribosome biogenesis protein NSA2 homolog (from UniProt O95478 1-260),binds
17,Serine/threonine-protein kinase 38 (from UniProt Q15208 1-465),binds
18,Spliceosome RNA helicase DDX39B (from UniProt Q13838 1-428),binds
19,Tubulin alpha-1C chain (from UniProt Q9BQE3 1-449),binds
20,Unconventional myosin-Ib (from UniProt O43795 1-1136),binds
21,tRNA selenocysteine 1-associated protein 1 (from UniProt Q9NX07 1-287),binds
22,B1,binds
23,B2,binds
24,B3,binds
25,B4,binds
26,B5,binds
27,B6,binds
28,B7,binds
29,B8,binds
